Measured values published in paper PMC11074300.
Substitutions are numbered along the chain they refer to. These are yes or no findings as the source states them, for the method shown. For some assays here: In cells and extracts the contact can be indirect. Some results given as binding are weak or reduced against the parent protein; the word gives no strength. For some assays here: Sequences can lack the tags named with a protein.

Chains of the proteins cited; added tags and fusions are not shown.
UniProt Q92973: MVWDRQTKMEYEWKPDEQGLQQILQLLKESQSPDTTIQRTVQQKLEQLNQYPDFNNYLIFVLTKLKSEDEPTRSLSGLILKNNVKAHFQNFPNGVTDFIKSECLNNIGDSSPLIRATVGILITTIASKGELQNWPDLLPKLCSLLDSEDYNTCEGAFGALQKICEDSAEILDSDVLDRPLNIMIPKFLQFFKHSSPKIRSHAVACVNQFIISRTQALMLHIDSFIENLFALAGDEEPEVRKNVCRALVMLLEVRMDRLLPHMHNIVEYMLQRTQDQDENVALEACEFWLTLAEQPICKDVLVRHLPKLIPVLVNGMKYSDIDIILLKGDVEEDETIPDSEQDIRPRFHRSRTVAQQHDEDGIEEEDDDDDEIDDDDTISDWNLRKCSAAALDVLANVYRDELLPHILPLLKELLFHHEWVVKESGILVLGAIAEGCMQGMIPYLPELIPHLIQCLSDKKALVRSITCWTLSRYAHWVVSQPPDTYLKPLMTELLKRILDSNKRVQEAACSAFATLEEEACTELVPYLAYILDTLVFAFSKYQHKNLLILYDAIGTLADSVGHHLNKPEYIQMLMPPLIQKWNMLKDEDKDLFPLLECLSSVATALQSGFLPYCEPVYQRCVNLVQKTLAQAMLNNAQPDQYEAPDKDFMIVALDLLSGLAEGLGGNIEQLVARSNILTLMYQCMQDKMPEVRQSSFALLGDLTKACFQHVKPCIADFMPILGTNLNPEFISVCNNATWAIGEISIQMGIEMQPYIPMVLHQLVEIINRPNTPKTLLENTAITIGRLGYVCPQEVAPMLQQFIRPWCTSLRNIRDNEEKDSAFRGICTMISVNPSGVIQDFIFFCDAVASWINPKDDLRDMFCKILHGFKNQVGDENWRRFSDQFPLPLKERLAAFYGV
UniProt P29590: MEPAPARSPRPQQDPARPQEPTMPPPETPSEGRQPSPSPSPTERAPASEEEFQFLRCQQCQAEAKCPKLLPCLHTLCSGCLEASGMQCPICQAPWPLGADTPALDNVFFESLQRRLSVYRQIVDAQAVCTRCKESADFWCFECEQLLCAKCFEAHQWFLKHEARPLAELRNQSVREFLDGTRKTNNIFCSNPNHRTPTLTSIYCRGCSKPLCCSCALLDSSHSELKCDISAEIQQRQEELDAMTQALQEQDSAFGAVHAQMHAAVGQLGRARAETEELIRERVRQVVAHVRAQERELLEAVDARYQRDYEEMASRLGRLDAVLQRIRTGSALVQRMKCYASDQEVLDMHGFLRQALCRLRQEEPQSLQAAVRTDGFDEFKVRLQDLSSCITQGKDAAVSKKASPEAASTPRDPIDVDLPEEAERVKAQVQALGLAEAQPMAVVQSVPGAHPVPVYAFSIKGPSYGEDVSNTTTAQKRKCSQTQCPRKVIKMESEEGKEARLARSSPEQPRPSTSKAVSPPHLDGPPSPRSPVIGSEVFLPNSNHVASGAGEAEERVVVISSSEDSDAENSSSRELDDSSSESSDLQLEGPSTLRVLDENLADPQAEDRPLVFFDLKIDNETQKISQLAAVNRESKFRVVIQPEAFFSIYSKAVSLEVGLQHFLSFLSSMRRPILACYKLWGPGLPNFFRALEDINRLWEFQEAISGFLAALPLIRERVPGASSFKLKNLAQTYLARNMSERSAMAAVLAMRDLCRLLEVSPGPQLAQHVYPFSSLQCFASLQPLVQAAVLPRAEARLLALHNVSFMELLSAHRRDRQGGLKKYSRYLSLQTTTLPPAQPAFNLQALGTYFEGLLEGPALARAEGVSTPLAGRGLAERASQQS
UniProt O95271: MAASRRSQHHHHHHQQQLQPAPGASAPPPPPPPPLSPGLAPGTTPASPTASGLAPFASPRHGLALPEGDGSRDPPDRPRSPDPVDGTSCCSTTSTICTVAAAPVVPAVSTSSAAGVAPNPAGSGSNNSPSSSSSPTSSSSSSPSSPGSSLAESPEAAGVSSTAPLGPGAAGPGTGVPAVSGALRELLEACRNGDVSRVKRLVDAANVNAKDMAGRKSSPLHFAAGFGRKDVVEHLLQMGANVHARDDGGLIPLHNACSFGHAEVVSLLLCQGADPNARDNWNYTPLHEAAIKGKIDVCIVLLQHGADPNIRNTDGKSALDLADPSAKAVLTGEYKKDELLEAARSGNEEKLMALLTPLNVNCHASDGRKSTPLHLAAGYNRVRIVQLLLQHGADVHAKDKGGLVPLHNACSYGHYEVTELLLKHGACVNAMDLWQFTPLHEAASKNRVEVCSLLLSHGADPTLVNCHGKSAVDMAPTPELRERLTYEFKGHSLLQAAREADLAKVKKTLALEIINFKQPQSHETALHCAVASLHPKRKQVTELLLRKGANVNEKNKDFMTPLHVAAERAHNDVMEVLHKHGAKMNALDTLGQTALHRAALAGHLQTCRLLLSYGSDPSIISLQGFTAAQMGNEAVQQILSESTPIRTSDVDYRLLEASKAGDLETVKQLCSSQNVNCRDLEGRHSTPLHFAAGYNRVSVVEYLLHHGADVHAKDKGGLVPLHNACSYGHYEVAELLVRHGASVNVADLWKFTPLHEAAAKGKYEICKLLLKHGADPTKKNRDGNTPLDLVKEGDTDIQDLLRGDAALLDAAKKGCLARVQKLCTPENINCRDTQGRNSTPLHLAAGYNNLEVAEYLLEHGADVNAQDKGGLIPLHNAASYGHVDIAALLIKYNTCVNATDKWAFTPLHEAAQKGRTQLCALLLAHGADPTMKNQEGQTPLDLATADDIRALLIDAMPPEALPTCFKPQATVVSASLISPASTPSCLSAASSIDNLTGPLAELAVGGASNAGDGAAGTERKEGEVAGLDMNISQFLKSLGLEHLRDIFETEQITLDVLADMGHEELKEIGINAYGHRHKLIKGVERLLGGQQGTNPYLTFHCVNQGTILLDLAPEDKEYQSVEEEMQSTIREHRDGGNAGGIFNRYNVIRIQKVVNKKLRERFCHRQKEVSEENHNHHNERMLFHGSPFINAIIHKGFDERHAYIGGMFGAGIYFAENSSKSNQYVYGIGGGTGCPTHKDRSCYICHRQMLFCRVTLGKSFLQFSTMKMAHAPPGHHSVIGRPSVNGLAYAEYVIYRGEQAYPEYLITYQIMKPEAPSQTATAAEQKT

Assays:
GST-Golgin45 (336–385) = target: T1, GST-Golgin45 (336–385) (UniProt Q9H2G9); assay: pull-down; 200 µg GST-fusion proteins immobilized on glutathione Sepharose 4B; 0.1 μM Importin β2 in 25 mM Hepes pH 7.37, 300 mM NaOAc, 25 mM Mg(OAc)2, 0.5% Triton X-100, 1 mM DTT; 4 °C, 2 h; bound fractions blotted with anti-importin β2; both purified
T1 sequence: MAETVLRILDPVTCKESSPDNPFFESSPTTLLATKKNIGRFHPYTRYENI

mCherry-Golgin45 = target: T2, mCherry-Golgin45 (UniProt Q9H2G9); assay: co-IP; HeLa cells transfected with mCherry-Golgin45 constructs (in some panels with myc-SUMO1 and HA-UBC9 WT or DN; in one panel with or without heat shock), lysed, anti-RFP beads, blots for endogenous proteins
T2 sequence: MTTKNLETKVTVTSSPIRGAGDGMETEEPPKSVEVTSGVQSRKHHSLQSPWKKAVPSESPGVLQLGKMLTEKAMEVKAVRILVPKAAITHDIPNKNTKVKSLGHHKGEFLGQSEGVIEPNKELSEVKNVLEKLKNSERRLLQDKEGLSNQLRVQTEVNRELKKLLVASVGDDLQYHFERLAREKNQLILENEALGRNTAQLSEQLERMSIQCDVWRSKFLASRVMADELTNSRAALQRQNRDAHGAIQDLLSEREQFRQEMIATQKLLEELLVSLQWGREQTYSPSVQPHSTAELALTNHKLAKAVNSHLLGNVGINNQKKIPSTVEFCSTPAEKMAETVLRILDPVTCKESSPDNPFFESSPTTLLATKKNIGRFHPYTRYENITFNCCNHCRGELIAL

mCherry-Golgin45 8-KR = target: T3, mCherry-Golgin45 8-KR (UniProt Q9H2G9); assay: as above
T3 sequence: T2 sequence with K4R, K9R, K67R, K72R, K77R, K100R, K106R, K127R

Substance	binding (GST-Golgin45 (336–385))	binding (mCherry-Golgin45)	binding (mCherry-Golgin45 8-KR)
His-tagged importin β2 (from UniProt Q92973 1-898)	binds		
Importin β2 (endogenous) (from UniProt Q92973 1-898)		binds	
PML (endogenous) (from UniProt P29590 1-882)		binds	
Tankyrase-1 (endogenous) (from UniProt O95271 1-1327)		binds	binds
